Results deposited as PubChem BioAssay AID504804 (Drosophila RNAi Screening Center, 2011)

Assay: 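dsRNAs that improve Kc cell survival under doxorubicin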 (primary screen)
Cells: Drosophila Kc cells
Knock-down reagent: long dsRNA against Drosophila genes, 0.5 µg dsRNA per well
Time to read-out: 96 h (48 h knock-down, then 48 h drug)
Treatment: doxorubicin 5 µg/ml for 48 h, added 48 h after dsRNA
Measurement: 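Viability measured as cellular ATP by luminescence after 48 h knock-down then 48 h doxorubicin at 5 µg/ml; unnormalised plate counts for each replicate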
Scale: raw ATP luminescence: higher = more viable cells, protection from doxorubicin
Active means: 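Active when both duplicate wells lie at least 2 SD above the plate mean and protection is confirmed by rescreening and independent dsRNAs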
The deposit covers about 19,000 reagents; this is an unselected part of those that have a named target and a result. Of all reagents, 47 (0.25%) are marked active. 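Signals are raw, not normalised; exact z-scores behind calls not deposited; actives needed confirmation, so some wells reaching 2 SD are inactive.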 Entries without a mark were called inactive. Reagents against one gene are numbered here. Names joined by + are all predicted targets of the reagent.

gene | reagent no. | raw ATP luminescence, replicate 1 | raw ATP luminescence, replicate 2
CG10710 | 1 | 74030 | 62510
kmg (kumgang) | 1 | 72600 | 89750
dtr (defective transmitter release) | 1 | 68563 | 58693
CG32982 | 1 | 2.09e5 | 2.25e5
CG32982 | 2 | 47750 | 57050
CG32982 | 3 | 39667 | 62443
CG32982 | 4 | 46313 | 73380
ND-B12 (NADH dehydrogenase (ubiquinone) B12 subunit) | 1 | 65757 | 67853
baz (bazooka) | 1 | 4.10e5 | 3.31e5
gol (goliath) | 1 | 66520 | 53487
CG16956 | 1 | 55073 | 65147
tn (thin) | 1 | 1.80e5 | 1.35e5
tn (thin) | 2 | 60837 | 67517
Bsg (Basigin) | 1 | 2.07e5 | 1.88e5
Bsg (Basigin) | 2 | 3.36e5 | 3.45e5
tefu (telomere fusion) | 1 | 79120 | 56610
path (pathetic) | 1 | 1.04e5 | 98897
CG3819 | 1 | 52173 | 57080
Met75Ca + Met75Cb | 1 | 92173 | 92183
Met75Ca + Met75Cb | 2 | 36800 | 33500
CG13728 | 1 | 52237 | 37473
Liprin-alpha | 1 | 1.07e5 | 1.03e5
CG14687 | 1 | 60410 | 62820
CG34109 | 1 | 46510 | 82980
CG34109 | 2 | 40863 | 58357
CG34109 | 3 | 32603 | 64937
CG31612 | 1 | 50280 | 49680
CG31612 | 2 | 45950 | 51623
CG18549 | 1 | 60890 | 43117
CG14245 | 1 | 30950 | 41980
CG11378 | 1 | 42040 | 52990
CG8031 | 1 | 59870 | 21263
CG12644 (retired record) | 1 | 4.35e5 | 3.35e5
IntS9 (Integrator 9) | 1 | 19393 | 31240
CG32454 | 1 | 47643 | 35477
CG14100 | 1 | 65723 | 59973
Adar (Adenosine deaminase acting on RNA) | 1 | 55680 | 49100
CG6674 | 1 | 48640 | 48107
b (black) | 1 | 72070 | 1.08e5
Strica (Ser/Thr-rich caspase) | 1 | 46740 | 54353
CG8272 | 1 | 51363 | 45243
CG11807 | 1 | 57930 | 70960
Meics (Meiotic central spindle) | 1 | 74260 | 51677
Sara (Smad anchor for receptor activation) | 1 | 63300 | 79037
CG33998 | 1 | 2.01e5 | 1.66e5
Rab19 | 1 | 56420 | 65797
SCOT (Succinyl-CoA:3-ketoacid CoA transferase) | 1 | 58007 | 60747
CG31296 | 1 | 2.05e5 | 1.91e5
thoc6 | 1 | 31147 | 35187
Plod (procollagen lysyl hydroxylase) | 1 | 40117 | 34003
Plod (procollagen lysyl hydroxylase) | 2 | 78470 | 75067
Tpst (Tyrosylprotein sulfotransferase) | 1 | 2.28e5 | 2.18e5
Tpst (Tyrosylprotein sulfotransferase) | 2 | 3.58e5 | 3.57e5
Tpst (Tyrosylprotein sulfotransferase) | 3 | 3.82e5 | 3.60e5
Tpst (Tyrosylprotein sulfotransferase) | 4 | 78120 | 97130
CG13280 | 1 | 77627 | 69573
bgcn (benign gonial cell neoplasm) | 1 | 64823 | 59030
bgcn (benign gonial cell neoplasm) | 2 | 39023 | 45383

Reformatted: 3 of the entries above.
Tpst (Tyrosylprotein sulfotransferase) #2
- raw ATP luminescence, replicate 1: 3.58e5
- raw ATP luminescence, replicate 2: 3.57e5

Tpst (Tyrosylprotein sulfotransferase) #3
- raw ATP luminescence, replicate 1: 3.82e5
- raw ATP luminescence, replicate 2: 3.60e5

Tpst (Tyrosylprotein sulfotransferase) #4
- raw ATP luminescence, replicate 1: 78120
- raw ATP luminescence, replicate 2: 97130
